The values that follow come from PMC7371716.

Chains of the proteins cited; added tags and fusions are not shown.
UniProt P51149: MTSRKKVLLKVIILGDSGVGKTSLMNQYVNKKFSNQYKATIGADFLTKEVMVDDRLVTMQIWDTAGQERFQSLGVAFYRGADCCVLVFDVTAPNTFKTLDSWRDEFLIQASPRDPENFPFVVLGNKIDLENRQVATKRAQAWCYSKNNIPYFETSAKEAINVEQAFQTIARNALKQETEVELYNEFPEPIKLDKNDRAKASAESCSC

Where two headings read alike, the source gives them in different places. These are yes or no findings as the source states them, for the method shown. In cells and extracts the contact can be indirect. A yes stands for co-enrichment or nearness to the bait. Other partners may have been found.

Holding throughout (assay): affinity purification with mass spectrometry; cells crosslinked with 500 uM DSP, lysed in 150 mM NaCl, 50 mM Tris-Cl pH7.5, 1% sodium-deoxycholate, 0.1% SDS, 1% NP-40, 1 mM EDTA; endogenous PDZD8 or Protrudin immunopurified with 2 ug antibody and protein G magnetic microbeads at 4 °C; control without antibody; label-free quantification; HCT116, HEK293 and human fibroblasts

The target of test [1] is T1, Protrudin (endogenous) (human (endogenous in HCT116 and HEK293)) (UniProt Q5T4F4).
T1 sequence: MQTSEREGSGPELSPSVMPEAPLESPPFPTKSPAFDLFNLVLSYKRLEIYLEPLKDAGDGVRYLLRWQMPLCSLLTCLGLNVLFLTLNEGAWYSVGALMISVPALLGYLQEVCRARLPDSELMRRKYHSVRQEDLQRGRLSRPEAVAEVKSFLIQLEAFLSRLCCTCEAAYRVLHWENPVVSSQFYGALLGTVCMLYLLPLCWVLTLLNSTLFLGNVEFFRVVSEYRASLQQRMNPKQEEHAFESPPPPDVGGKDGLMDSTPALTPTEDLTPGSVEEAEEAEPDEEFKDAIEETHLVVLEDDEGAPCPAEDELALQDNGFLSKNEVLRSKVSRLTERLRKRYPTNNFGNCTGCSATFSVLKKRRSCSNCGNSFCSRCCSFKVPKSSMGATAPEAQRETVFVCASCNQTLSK

Test [2] concerns the target T1, Protrudin (endogenous) (human (endogenous in HCT116 and HEK293)). This is another data set of the same source.
Test [3] concerns the target T2, PDZD8 (endogenous) (human (endogenous in HCT116 and human fibroblasts)) (UniProt Q8NEN9).
T2 sequence: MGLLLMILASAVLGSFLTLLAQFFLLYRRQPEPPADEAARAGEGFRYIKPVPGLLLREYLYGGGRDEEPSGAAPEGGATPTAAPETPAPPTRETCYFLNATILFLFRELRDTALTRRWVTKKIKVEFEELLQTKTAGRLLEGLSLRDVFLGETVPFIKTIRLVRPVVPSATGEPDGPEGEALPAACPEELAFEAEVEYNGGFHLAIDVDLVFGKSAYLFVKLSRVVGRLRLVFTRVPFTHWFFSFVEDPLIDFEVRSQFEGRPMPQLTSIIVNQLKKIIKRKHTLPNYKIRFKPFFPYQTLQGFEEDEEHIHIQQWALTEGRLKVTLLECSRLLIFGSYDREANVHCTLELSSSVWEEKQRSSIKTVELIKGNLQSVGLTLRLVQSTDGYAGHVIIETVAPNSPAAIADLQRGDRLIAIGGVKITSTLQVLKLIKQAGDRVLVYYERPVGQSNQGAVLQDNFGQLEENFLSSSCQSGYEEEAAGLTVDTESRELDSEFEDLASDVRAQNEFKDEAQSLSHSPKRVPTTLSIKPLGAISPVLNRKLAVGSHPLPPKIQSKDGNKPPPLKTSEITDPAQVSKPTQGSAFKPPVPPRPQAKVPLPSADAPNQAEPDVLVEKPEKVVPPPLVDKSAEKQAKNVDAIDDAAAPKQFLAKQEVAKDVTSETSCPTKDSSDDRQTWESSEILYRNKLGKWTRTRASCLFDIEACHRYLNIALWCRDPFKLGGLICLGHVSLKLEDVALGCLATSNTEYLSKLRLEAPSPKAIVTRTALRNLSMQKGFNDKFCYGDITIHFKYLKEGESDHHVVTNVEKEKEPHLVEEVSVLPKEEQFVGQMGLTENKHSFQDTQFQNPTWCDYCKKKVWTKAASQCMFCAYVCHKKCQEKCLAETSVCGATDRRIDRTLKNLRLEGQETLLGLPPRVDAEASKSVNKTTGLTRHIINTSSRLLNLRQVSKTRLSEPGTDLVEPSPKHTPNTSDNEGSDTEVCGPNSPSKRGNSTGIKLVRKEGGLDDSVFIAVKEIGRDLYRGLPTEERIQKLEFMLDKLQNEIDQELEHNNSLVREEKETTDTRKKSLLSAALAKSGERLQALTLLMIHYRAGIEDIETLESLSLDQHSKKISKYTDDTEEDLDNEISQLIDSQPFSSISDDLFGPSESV

In the case of “Rab7 (endogenous) (from UniProt P51149 1-207)”, in test [1], the binding result was “binds”.

B1: PDZD8 (endogenous) (protein, UniProt Q8NEN9 1-1154)
chain: T2 sequence
Regarding B1, the binding entry in test [2] is listed as “binds”.

B2: Protrudin (endogenous) (protein, UniProt Q5T4F4 1-411)
chain: T1 sequence
As to B2, the binding entry in test [3] is given as “binds”.
